{"sequences": {"note": "Protein sequences, listed by entry. Tags and fused reporters are not part of them.", "UniProt Q15058": "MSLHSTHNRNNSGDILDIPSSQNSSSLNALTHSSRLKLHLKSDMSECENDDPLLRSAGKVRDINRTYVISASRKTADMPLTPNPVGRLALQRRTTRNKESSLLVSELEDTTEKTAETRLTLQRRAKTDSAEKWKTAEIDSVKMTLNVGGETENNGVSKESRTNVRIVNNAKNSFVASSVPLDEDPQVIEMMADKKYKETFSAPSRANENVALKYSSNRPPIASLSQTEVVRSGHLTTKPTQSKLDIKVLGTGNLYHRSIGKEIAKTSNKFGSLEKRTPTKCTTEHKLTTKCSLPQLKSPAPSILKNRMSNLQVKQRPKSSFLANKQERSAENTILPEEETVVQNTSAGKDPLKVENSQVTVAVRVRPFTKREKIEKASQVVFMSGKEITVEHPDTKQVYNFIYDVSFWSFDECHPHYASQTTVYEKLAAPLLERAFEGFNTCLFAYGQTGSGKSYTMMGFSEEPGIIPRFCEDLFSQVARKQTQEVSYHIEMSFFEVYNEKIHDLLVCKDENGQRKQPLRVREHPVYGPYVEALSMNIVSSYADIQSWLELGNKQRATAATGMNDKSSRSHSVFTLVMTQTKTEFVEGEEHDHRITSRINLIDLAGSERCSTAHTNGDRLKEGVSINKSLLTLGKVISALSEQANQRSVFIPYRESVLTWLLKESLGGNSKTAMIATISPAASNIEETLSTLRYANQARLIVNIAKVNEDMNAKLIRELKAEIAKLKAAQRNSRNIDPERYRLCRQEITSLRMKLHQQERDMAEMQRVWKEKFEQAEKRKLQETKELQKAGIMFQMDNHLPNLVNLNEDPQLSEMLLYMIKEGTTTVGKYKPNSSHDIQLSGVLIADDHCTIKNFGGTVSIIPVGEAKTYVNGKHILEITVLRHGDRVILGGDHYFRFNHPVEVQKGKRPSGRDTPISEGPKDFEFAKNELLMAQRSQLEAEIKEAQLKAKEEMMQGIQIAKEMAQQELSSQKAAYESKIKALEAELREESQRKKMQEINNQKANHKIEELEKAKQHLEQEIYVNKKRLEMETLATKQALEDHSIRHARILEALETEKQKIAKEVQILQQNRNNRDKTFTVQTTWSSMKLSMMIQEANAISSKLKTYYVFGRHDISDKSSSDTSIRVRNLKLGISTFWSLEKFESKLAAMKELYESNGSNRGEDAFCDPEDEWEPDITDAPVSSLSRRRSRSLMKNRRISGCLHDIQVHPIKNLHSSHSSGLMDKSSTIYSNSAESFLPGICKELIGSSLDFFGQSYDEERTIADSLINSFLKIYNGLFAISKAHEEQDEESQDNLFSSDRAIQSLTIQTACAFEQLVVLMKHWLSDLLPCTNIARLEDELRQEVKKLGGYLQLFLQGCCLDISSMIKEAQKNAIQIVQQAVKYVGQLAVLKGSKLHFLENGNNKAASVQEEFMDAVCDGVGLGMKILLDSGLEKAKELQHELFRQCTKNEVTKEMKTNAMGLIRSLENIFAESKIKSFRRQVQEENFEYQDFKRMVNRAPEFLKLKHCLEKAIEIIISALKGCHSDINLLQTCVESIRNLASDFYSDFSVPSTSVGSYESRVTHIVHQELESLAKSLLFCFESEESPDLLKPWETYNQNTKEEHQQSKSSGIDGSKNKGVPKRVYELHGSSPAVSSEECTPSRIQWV", "UniProt Q96GD4": "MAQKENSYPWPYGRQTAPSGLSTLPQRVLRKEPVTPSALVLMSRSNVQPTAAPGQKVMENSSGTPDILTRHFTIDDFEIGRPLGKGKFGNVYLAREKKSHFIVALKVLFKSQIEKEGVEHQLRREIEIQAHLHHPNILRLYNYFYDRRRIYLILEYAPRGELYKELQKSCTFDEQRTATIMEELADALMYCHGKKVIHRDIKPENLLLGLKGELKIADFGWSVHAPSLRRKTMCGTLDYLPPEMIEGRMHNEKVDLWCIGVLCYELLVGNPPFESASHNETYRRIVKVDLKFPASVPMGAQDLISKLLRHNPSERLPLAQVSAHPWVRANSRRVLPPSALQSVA"}, "source": "paper doi:10.1101/2025.08.25.672096", "about": "(bioRxiv, 2025)", "key": {"[1]": {"target": "T1, GST::MKLP1(620-856) (UniProt Q02241)", "T1 sequence": "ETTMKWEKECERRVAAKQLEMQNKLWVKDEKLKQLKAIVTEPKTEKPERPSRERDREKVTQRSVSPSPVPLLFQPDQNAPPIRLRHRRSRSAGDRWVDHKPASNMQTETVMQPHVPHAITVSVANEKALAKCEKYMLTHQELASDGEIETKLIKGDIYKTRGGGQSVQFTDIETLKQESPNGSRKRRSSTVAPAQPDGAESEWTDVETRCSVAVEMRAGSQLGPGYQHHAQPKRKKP", "assay": "pull-down"}, "[2]": {"target": "GFP-tagged Citron kinase (CIT-K) S440A, phospho-dead mutant (human) (UniProt O14578)", "assay": "co-IP"}, "[3]": {"target": "GFP-tagged Citron kinase (CIT-K) S699A, phospho-dead mutant (human) (UniProt O14578)", "assay": "co-IP"}, "[4]": {"target": "GFP-tagged Citron kinase (CIT-K), wild type transgene (human) (UniProt O14578)", "assay": "co-IP"}}, "note": "No constants are given. Whether binding was seen depends on the method and setting. For part of these data: In cells and extracts the contact can be indirect. Some entries that bind do so weakly or less than the wild type. For part of these data: Where a sequence is shown, tags or fusion partners need not be part of it."}
{"molecule": "MBP::CIT-K(586-785) phosphorylated in vitro by Aurora B (pS699) (from UniProt O14578-4 586-785) (domain or fragment)", "values": [{"measurement": "binding", "setting": "[1]", "value": "binds"}]}
{"molecule": "MBP::CIT-K(586-785) (from UniProt O14578-4 586-785) (domain or fragment)", "values": [{"measurement": "binding", "setting": "[1]", "value": "binds"}]}
{"molecule": "KIF14 (from UniProt Q15058 1-1648)", "values": [{"measurement": "binding", "setting": "[2]", "value": "binds"}, {"measurement": "binding", "setting": "[3]", "value": "binds"}, {"measurement": "binding", "setting": "[4]", "value": "binds"}]}
{"molecule": "Aurora B kinase (AURKB) (from UniProt Q96GD4 1-344)", "values": [{"measurement": "binding", "setting": "[2]", "value": "binds"}, {"measurement": "binding", "setting": "[3]", "value": "binds"}, {"measurement": "binding", "setting": "[4]", "value": "binds"}]}
{"molecule": "MKLP1/KIF23 (protein, UniProt Q02241 1-960) MKSARAKTPRKPTVKKGSQTNLKDPVGVYCRVRPLGFPDQECCIEVINNTTVQLHTPEGYRLNRNGDYKETQYSFKQVFGTHTTQKELFDVVANPLVNDLIHGKNGLLFTYGVTGSGKTHTMTGSPGEGGLLPRCLDMIFNSIGSFQAKRYVFKSNDRNSMDIQCEVDALLERQKREAMPNPKTSSSKRQVDPEFADMITVQEFCKAEEVDEDSVYGVFVSYIEIYNNYIYDLLEEVPFDPIKPKPPQSKLLREDKNHNMYVAGCTEVEVKSTEEAFEVFWRGQKKRRIANTHLNRESSRSHSVFNIKLVQAPLDADGDNVLQEKEQITISQLSLVDLAGSERTNRTRAEGNRLREAGNINQSLMTLRTCMDVLRENQMYGTNKMVPYRDSKLTHLFKNYFDGEGKVRMIVCVNPKAEDYEENLQVMRFAEVTQEVEVARPVDKAICGLTPGRRYRNQPRGPVGNEPLVTDVVLQSFPPLPSCEILDINDEQTLPRLIEALEKRHNLRQMMIDEFNKQSNAFKALLQEFDNAVLSKENHMQGKLNEKEKMISGQKLEIERLEKKNKTLEYKIEILEKTTTIYEEDKRNLQQELETQNQKLQRQFSDKRRLEARLQGMVTETTMKWEKECERRVAAKQLEMQNKLWVKDEKLKQLKAIVTEPKTEKPERPSRERDREKVTQRSVSPSPVPLSSNYIAQISNGQQLMSQPQLHRRSNSCSSISVASCISEWEQKIPTYNTPLKVTSIARRRQQEPGQSKTCIVSDRRRGMYWTEGREVVPTFRNEIEIEEDHCGRLLFQPDQNAPPIRLRHRRSRSAGDRWVDHKPASNMQTETVMQPHVPHAITVSVANEKALAKCEKYMLTHQELASDGEIETKLIKGDIYKTRGGGQSVQFTDIETLKQESPNGSRKRRSSTVAPAQPDGAESEWTDVETRCSVAVEMRAGSQLGPGYQHHAQPKRKKP", "values": [{"measurement": "binding", "setting": "[2]", "value": "binds"}, {"measurement": "binding", "setting": "[3]", "value": "binds"}, {"measurement": "binding", "setting": "[4]", "value": "binds"}]}
{"molecule": "MBP::CIT-K(420-585) (domain or fragment, human, UniProt O14578-4 420-585, looked up) SYSKALGILGRSESVVSGLDSPAKTSSMEKKLLIKSKELQDSQDKCHKMEQEMTRLHRRVSEVEAVLSQKEVELKASETQRSLLEQDLATYITECSSLKRSLEQARMEVSQEDDKALQLLHDIREQSRKLQEIKEQEYQAQVEEMRLMMNQLEEDLVSARRRSDLY", "values": [{"measurement": "binding", "setting": "[1]", "value": "no binding"}]}
